Experimental data taken from publication PMC8080709.
No constants are given. Whether binding was seen depends on the method and setting. Binding seen in cells or lysates may run through a third protein. Some results given as binding are weak or reduced against the parent protein; the word gives no strength.

Sequences of proteins named here, by UniProt entry; tags and fusion partners are left off.
UniProt Q3URK3: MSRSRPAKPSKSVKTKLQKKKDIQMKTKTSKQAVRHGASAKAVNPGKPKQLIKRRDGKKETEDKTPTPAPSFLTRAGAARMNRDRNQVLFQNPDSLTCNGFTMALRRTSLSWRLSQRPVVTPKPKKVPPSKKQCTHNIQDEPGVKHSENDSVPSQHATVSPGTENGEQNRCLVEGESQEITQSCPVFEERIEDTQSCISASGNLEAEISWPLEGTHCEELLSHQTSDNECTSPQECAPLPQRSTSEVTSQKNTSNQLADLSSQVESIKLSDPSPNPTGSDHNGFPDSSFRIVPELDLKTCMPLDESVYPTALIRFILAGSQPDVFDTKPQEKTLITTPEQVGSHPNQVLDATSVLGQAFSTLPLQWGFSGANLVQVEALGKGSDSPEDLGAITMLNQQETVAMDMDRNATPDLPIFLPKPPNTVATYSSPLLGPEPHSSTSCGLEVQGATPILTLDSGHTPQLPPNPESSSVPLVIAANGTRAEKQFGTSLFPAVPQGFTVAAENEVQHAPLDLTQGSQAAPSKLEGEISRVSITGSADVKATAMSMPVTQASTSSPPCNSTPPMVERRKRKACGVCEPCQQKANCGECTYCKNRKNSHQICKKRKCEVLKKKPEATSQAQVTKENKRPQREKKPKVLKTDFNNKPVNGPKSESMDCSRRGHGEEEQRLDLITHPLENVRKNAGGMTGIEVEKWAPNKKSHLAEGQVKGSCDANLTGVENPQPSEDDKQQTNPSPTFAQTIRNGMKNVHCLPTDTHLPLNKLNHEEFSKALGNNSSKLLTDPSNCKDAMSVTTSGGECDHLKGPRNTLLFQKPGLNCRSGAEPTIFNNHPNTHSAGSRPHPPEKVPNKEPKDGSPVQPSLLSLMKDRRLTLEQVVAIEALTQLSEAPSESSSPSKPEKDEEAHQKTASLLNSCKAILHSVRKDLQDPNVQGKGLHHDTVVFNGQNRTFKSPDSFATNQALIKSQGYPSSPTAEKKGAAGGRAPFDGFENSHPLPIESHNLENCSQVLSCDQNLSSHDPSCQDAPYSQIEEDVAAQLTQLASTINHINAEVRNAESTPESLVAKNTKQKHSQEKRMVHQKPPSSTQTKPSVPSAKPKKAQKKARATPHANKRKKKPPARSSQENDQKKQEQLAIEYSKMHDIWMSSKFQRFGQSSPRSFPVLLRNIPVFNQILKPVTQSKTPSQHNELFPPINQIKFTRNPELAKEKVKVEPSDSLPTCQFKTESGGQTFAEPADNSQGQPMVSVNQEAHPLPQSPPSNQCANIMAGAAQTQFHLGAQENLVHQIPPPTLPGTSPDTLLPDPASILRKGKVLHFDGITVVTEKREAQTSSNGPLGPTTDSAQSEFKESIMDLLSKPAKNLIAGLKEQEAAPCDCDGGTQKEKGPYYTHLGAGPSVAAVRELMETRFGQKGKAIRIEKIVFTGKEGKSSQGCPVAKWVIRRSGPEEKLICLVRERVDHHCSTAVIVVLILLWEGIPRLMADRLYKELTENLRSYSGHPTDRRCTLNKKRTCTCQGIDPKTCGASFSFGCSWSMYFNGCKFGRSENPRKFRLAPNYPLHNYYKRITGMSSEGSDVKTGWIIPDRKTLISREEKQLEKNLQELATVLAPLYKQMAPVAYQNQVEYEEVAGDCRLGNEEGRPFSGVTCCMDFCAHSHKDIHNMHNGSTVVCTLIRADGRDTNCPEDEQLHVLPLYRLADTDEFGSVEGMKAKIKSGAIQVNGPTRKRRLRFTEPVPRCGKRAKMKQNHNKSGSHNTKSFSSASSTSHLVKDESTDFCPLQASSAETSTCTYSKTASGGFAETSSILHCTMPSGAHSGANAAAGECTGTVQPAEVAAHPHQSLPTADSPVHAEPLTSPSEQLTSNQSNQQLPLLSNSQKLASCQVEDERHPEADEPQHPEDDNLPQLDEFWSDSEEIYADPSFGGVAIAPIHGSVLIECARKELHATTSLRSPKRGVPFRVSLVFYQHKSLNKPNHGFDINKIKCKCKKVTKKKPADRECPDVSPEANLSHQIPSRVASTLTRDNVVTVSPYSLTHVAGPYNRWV
UniProt P70388: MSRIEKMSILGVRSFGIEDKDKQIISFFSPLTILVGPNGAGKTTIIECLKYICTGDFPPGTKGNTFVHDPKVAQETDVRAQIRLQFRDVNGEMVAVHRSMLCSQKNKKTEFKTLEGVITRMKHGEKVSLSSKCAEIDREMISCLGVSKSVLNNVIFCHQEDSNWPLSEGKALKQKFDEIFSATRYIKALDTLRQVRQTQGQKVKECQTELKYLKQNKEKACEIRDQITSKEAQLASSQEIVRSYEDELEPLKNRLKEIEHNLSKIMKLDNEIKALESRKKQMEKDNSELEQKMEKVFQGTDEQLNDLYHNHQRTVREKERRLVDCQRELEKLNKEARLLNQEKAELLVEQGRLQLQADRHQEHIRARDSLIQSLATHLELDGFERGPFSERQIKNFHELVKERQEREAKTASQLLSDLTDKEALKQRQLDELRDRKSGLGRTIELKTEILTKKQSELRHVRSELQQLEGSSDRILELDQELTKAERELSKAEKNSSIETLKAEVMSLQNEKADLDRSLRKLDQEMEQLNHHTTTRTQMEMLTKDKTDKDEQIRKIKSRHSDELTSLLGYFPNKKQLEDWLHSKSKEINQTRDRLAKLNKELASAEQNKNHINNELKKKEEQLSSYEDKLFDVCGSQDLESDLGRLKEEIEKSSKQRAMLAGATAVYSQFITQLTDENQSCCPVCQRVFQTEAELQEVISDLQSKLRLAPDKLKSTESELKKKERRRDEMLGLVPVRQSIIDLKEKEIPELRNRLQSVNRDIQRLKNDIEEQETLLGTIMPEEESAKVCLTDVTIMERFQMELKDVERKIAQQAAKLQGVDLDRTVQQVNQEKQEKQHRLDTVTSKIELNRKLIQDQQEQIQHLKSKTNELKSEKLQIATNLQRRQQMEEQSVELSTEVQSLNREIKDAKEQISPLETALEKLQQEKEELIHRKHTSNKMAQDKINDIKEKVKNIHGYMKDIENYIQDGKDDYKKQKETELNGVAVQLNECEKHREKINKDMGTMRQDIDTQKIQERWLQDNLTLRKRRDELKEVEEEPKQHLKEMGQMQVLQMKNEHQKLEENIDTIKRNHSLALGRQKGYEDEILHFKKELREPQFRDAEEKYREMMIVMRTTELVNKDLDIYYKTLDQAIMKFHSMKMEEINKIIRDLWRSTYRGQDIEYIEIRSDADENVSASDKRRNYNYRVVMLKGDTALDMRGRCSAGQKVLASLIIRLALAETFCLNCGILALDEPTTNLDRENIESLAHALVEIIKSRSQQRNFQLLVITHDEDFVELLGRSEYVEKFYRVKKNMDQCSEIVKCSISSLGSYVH

Legend:
[1] = target: tet methylcytosine dioxygenase 1 (Tet1) (mouse (endogenous; the paper cultures only mouse cells, the cell type of the co-IP is not named)) (UniProt Q3URK3); assay: co-IP; cells lysed in RIPA buffer with proteinase inhibitor cocktail, sonicated, precleared with protein G magnetic beads 1 h; anti-Tet1 or anti-Rad50 antibody overnight at 4 °C; beads washed with RIPA buffer, western blot; also done after Mre11 and Nbs1 knockdown (interaction significantly decreased)
[2] = target: Rad50 (mouse (endogenous; the paper cultures only mouse cells, the cell type of the co-IP is not named)) (UniProt P70388); assay: as above

Row | binding [1] | binding [2] | Substance
1 | binds |  | Rad50 (from UniProt P70388 1-1312)
2 |  | binds | tet methylcytosine dioxygenase 1 (Tet1) (from UniProt Q3URK3 1-2039) (enzyme)
